PubChem BioAssay AID504786 – Drosophila RNAi Screening Center – 2011
Purpose: 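Knock-downs reducing HIF reporter induction by the iron chelator DFO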 (primary screen). Cell system: Drosophila S2 cells with a stable HIF luciferase reporter. Reagent: long dsRNA against Drosophila genes, about 0.2 µg dsRNA per well of a 384-well plate. Duration: three days of knock-down, then 20 h of DFO before reading. Treatment: desferrioxamine (DFO) at 100 µM, an iron chelator that mimics hypoxia, for 20 h. Measurement: 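Firefly luciferase driven by the mouse ldh-a hypoxia-response element, measured after 20 h of 100 µM DFO; z-scores per plate, higher means more signal lost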. Scale: z-score: higher = stronger loss of HIF reporter signal.
In all, the deposit lists about 21,000 reagents; below is an unselected part of those with a known target gene and a result. 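Primary screen; positive scores mean lost reporter signal, so the sign may be inverted from the usual convention.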 Reagents against one gene are numbered here. A plus sign joins genes that one reagent is predicted to hit. No sequences are given here.

no.	target gene	reagent no.	z-score, replicate 1	z-score, replicate 2
1	PsGEF (retired record)	1	-0.2	0.2
2	PsGEF (retired record)	2	1.3	2
3	spel1	1	-0.1	-0.5
4	His3.3B	1	-0.2	-0.6
5	His3.3B	2	-0.6	1.3
6	Mst77F	1	-0.3	-0.4
7	CG4806	1	0.6	0.7
8	twr	1	-0.5	-0.9
9	Jhbp5	1	-0.2	-0.2
10	l(1)G0020	1	0	0.7
11	Idh3a	1	-0.2	0.1
12	CG7856	1	-0.2	-0.2
13	CG32533	1	-0.4	-0.7
14	CG32533	2	-0.4	-0.5
15	wcd	1	-0.2	0
16	CG18135	1	-0.2	-0.8

5 of these entries in another layout.
target gene,reagent no.,"z-score, replicate 1","z-score, replicate 2"
spel1,1,-0.1,-0.5
His3.3B,1,-0.2,-0.6
His3.3B,2,-0.6,1.3
Mst77F,1,-0.3,-0.4
CG4806,1,0.6,0.7

The results go on:
no.	target gene	reagent no.	z-score, replicate 1	z-score, replicate 2
17	CG33155 + mRpL53	1	1	1.7
18	nSMase	1	-0.4	-1.1
19	CG8281	1	-0.4	-0.3
20	dgt6	1	-0.2	-0.3
21	CG5342	1	-0.3	-0.1
22	CG32628 (retired record)	1	-0.2	0.3
23	TrpRS-m	1	-0.3	-0.3
24	CG7294	1	-0.3	-0.4
25	CG11504	1	-0.3	-0.2
26	sona	1	0.2	-0.1
27	sona	2	1	0.4
28	sona	3	-0.2	-0.2
29	CG34008	1	-0.2	-0.3
30	CG12818	1	-0.2	-0.4
31	Ugalt	1	-0.3	-0.6
32	Pde9	1	-0.2	-0.4
33	Pde9	2	0.1	-0.5
34	Pde9	3	-0.1	0.2
35	Pde9	4	0	0
